Like-named read-outs stand apart in the source and are kept apart here.
Columns and labels:
[1] = test system: Spraque-Dawley rats; experiment: Warm-water tail withdrawal combination studies with morphine; format: in vivo, rat; conditions: morphine 5.6 mg/kg IP; vehicle T10 48.9±0.1
Description: (§1) The terminal 10 cm of the tail was placed into a thermos bottle containing water warmed to 38, 42, 46, 50, 54, or 58° C. The latency in seconds for the animal to remove the tail from the water was used as a measure of nociception.
Combination compound studies. […] Compounds were administered IP at the same time 30 min before testing.
(§2) Test Method 1 Data Analysis—The temperature that produced a half-maximal increase in the tail-withdrawal latency (i.e., T10) was calculated from each temperature-effect curve. The T10 was determined by interpolation from a line drawn between the point above and the point below 10 sec on the temperature-effect curve. For these studies, thermal hypersensitivity was defined as a leftward shift in the temperature-effect curve and a decrease in the T10 value. Reversal of thermal hypersensitivity was defined as a return to baseline of the temperature-effect curve and the T10 value and was calculated according to the following equation: […]

[2] = test system: Spraque-Dawley rats; conditions: rat, in vivo
Description: as §1
Following the assessment of baseline thermal sensitivity, thermal hypersensitivity was produced by a 50 μL injection of 0.1 mg prostaglandin E2 (PGE2) into the terminal 1 cm of the tail. Temperature-effect curves were generated before (baseline) and after (15, 30, 60, 90 and 120 min) the PGE2 injection.
Compounds were administered IP at the same time as PGE2, which was administered 30 min before testing.
as §2

CN1CC[C@]23c4c5ccc(O)c4O[C@H]2[C@@H](O)C=C[C@H]3[C@H]1C5 [Morphine, morphine]
T10 (temperature producing half-maximal tail-withdrawal latency) [1]: 51.2±0.7 | T10 (temperature producing half-maximal tail-withdrawal latency) [2]: 50.6±0.5
